According to patent US20260215432A1, “ANTIMICROBIAL CONJUGATED OLIGOELECTROLYTES AND METHODS THEREOF” (National University of Singapore, priority 2023, published 2026):

Test system: A549 (lung epithelial cells)
Test: Cytotoxicity against mammalian cell line
Type: cell-based
Conditions: IC50 (A549) divided by MIC towards MRSA
Description: The cytotoxicity of the TPP COEs was also tested against a mammalian cell line (A549).

With `C(=C\c1ccc(OCCCC[P+](c2ccccc2)(c2ccccc2)c2ccccc2)cc1)/c1ccc(OCCCC[P+](c2ccccc2)(c2ccccc2)c2ccccc2)cc1.[I-].[I-]` [Compound D4P] the “Selectivity Index” value was 4.0.
With `C(=C\c1ccc(OCCCCCC[P+](c2ccccc2)(c2ccccc2)c2ccccc2)cc1)/c1ccc(OCCCCCC[P+](c2ccccc2)(c2ccccc2)c2ccccc2)cc1.[I-].[I-]` [Compound D6P] the “Selectivity Index” value was 6.5.
`COc1cc(/C=C/c2ccc(OCCCC[P+](c3ccccc3)(c3ccccc3)c3ccccc3)c(OC)c2)ccc1OCCCC[P+](c1ccccc1)(c1ccccc1)c1ccccc1.[I-].[I-]` [DM4P] was tested, and the “Selectivity Index” value was 4.5.
With `COc1cc(/C=C/c2ccc(OCCCCCC[P+](c3ccccc3)(c3ccccc3)c3ccccc3)c(OC)c2)ccc1OCCCCCC[P+](c1ccccc1)(c1ccccc1)c1ccccc1.[I-].[I-]` [DM6P] the “Selectivity Index” value was 11.
With `COc1cc(/C=C/c2ccc(OCCCCCCCC[P+](c3ccccc3)(c3ccccc3)c3ccccc3)c(OC)c2)ccc1OCCCCCCCC[P+](c1ccccc1)(c1ccccc1)c1ccccc1.[I-].[I-]` [DM8P] the “Selectivity Index” value was 2.5.
